Publication PMC3289634

Chains of the proteins cited; added tags and fusions are not shown. Residues count along the entry.
UniProt P61244, 22-113: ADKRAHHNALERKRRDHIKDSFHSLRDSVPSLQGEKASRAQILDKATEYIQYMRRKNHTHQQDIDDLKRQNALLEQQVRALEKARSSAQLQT

Target: Max bHLHZ (UniProt P61244)
Assay: CD
Details: 10 uM monomer, 10 uM duplex, helicity 49% to 67%; CD: 15.1 mM Na2HPO4, 4.9 mM KH2PO4, 50 mM NaCl, pH 7.4, 22 C; recombinant protein

Sequence: TGCAGGAACCACGTGGTGAAGGTT (double strand) [E-box DNA]
- binding result: binds

For at least one entry, the source does not settle the construct or the ends of the probe. At least one verdict rests on a figure or table, not on a statement of the authors.
